Reference: patent US4546096A, “Anticholinergic glucuronides and antiperspirant use thereof” (Repligen Corporation, priority 1984, dated 1985)

Test system: rabbit eye pupil
Test: Mydriasis assay (rabbit eye pupil diameter)
Format: in vivo
Details: error ± 0.5 mm
Procedure: The rabbit eye pupil diameter was measured with a clear plastic ruler after exposing the eye to 50 W light at a distance of 6 in. Exposure to light contracts the pupil to approximately 3 mm diameter.
The addition of the compounds to be tested is done in a maximum volume of 150 μl, in 50 mM NaPO4, pH 6.8, 100 mM NaCl. The sample was applied in the upper corner of the eye and was allowed to completely cover the cornea after each addition. Pupil dilation was measured at 3 separate intervals following the procedure outlined above. Buffer controls were run in one eye and the anticholinergic in the other.

CCN(Cc1ccncc1)C(=O)C(CO)c1ccccc1 (centres unmarked) [Tropicamide]
Change in Pupil Diameter as a function of time (20 ug applied, in 35 min): 1 mm | Change in Pupil Diameter as a function of time (600 ug applied, in 20 min): 7 mm
